# In PubChem BioAssay AID1487 (National Center for Advancing Translational Sciences (NCATS), 2009):
# The other results are listed elsewhere or left out. These are further read-outs of the screen, such as a control signal, another cell line or another target. No call is given for them. Compounds called inactive in the main read-out are mostly missing here. Potencies come from curve fits of mixed quality, noted in brackets.
# Assay: qHTS Assay for Modulators of Lamin A Splicing
# Details: HeLa LMNA splicing GFP/RFP minigene ratio, 48 h
# Method in brief: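 S3 HeLa stable clones carrying a lamin A-EGFP splicing minigene plus DsRed2 were seeded at 600 cells/well in Opti-MEM with 2% FBS, pin-dosed and incubated 48 h at 37°C. Acumen cytometry (488 nm) gave the GFP/RFP total-intensity ratio.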
# [1] = measured here: RFP viability control channel
# [2] = measured here: GFP splicing reporter channel
Compound,AC50 [1],AC50 [2]
CC(=O)Nc1ccccc1C(=O)C(=O)Nc1ccc(C(=O)NCC2CCCO2)cc1 (configuration not stated),"7.08 µM [rising, single point]",
O=C(COc1ccc2ccccc2c1)NCCn1ccc2ccccc21,"22.4 µM [rising, single point]",
O=C(c1ccccc1Cl)N(C(=O)c1ccccc1Cl)c1nccc(-c2cccs2)n1,"1.78 µM [rising, partial curve, poor fit]","11.2 µM [rising, partial curve, poor fit]"
CCN(CC)S(=O)(=O)c1cc(NC(=O)c2cc(-c3ccccn3)nc3ccccc23)ccc1C,"35.5 µM [rising, partial curve, poor fit]",
CC(C)c1ccc(NC(=O)N2CCC(c3nc4ccccc4o3)CC2)cc1,"12.6 µM [rising, partial curve]","10 µM [rising, partial curve]"
CSc1ccc(CCNC(=O)c2cc3cc(S(=O)(=O)N4CCCCC4)ccc3n2C)cc1,,"0.447 µM [rising, single point]"
COc1ccc(CNc2nc(SCc3ccccc3Cl)nc3ccccc23)cc1,"35.5 µM [falling, single point]","17.8 µM [falling, partial curve, poor fit]"
C/C(=N\NC(=O)c1ccc(C)cc1)C1C(=O)c2ccccc2C1=O,"35.5 µM [rising, single point]",
COc1ccc(S(=O)(=O)N(C(C)=O)c2ccc3oc(=O)sc3c2)cc1,"10 µM [rising, partial curve]",
CCCCc1nc2c(c3c1C[C@H](C)OC3)CN(S(=O)(=O)c1ccc(Cl)c3nonc13)CC2,"0.562 µM [falling, partial curve, poor fit]","0.794 µM [falling, partial curve, poor fit]"
COc1ccccc1/C=N/N1C(=O)C(CC(=O)Nc2ccc([N+](=O)[O-])cc2OC)SC1=Nc1cccc(C)c1C (configuration not stated),"0.00355 µM [falling, full curve, poor fit]","0.00501 µM [falling, full curve, poor fit]"
COc1cc(/C=C/C(=O)OCC(=O)NCc2ccco2)cc(OC)c1OC,"0.355 µM [rising, full curve, poor fit]",
O=C1Nc2ccccc2CCC1Sc1nnc(-c2ccc(Cl)cc2)s1 (configuration not stated),"15.8 µM [rising, partial curve, poor fit]",
O=C(CSc1nc(=O)[nH]c2c1CCCC2)NCc1ccc(F)cc1,,"1.41 µM [falling, partial curve]"
Cc1oc(-c2cc3c(cc2Cl)OCO3)nc1CN1CCCC(C(=O)N2CCOCC2)C1 (configuration not stated),,"0.0126 µM [falling, full curve, poor fit]"
CSc1nc(N)nc(SCCS(=O)(=O)c2ccc(Cl)cc2)c1C#N,"35.5 µM [falling, single point]",
O=c1c2cccnc2nc2n1CCCCC2,,"0.126 µM [rising, full curve]"

Compound,AC50 [1],AC50 [2]
CCOC(=O)c1ccc(NC(=S)N(CCN2CCCCCC2)Cc2ccco2)cc1,,"35.5 µM [falling, single point]"
O=c1c2ccccc2cnn1-c1ccc(Cl)cc1,"11.2 µM [rising, partial curve]","1.58 µM [rising, partial curve]"
C[C@@]12C[C@@H](O)[C@H]3[C@@H](CCC4=CC(=O)CC[C@]43C)[C@H]1CC[C@H]2C(=O)CO,"0.447 µM [falling, partial curve]","0.447 µM [falling, single point]"
CCN=C1S/C(=C\c2ccc(N3CCOCC3)cc2C)C(=O)N1CC,"31.6 µM [rising, single point]",
COC(=O)c1ccc(NC(=O)c2ccccc2NS(=O)(=O)c2ccccc2)cc1,"35.5 µM [falling, single point]","17.8 µM [falling, single point]"
CN(c1ccccc1)S(=O)(=O)c1cccc(NC(=O)CSc2ncc(C(F)(F)F)cc2Cl)c1,"11.2 µM [rising, partial curve]","8.91 µM [rising, partial curve, poor fit]"
Cc1ccc(C(=O)N/C(=C/c2cccs2)C(=O)NCCc2c[nH]c3ccccc23)cc1,"3.98 µM [rising, partial curve]",
CCOC(=O)C(=CNc1ccc(OC)cc1[N+](=O)[O-])C(=O)OCC,"0.00447 µM [falling, full curve, poor fit]","5.01 µM [falling, partial curve, poor fit]"
Cc1ccc(-n2cc(C(=O)c3cc(Cl)ccc3O)cc(C#N)c2=O)cc1,"12.6 µM [rising, partial curve]",
Cc1ccc(S(=O)(=O)N(C)Cc2ccc(C(=O)N/N=C3\CC(=O)CC(C)(C)C3)cc2)cc1,"14.1 µM [rising, partial curve]","14.1 µM [rising, single point]"
CCN(CC)S(=O)(=O)c1cccc(C(=O)OCC(=O)c2ccc3c(c2)OCCO3)c1,"35.5 µM [rising, single point]",
CC(C(=O)N1CCCc2ccccc21)N1CCN(S(=O)(=O)c2ccccc2F)CC1 (configuration not stated),"14.1 µM [rising, partial curve, poor fit]",
COc1cc(C(=O)OCC(=O)NCc2ccc(F)cc2)cc(NC(=O)c2cccs2)c1OC,"0.0126 µM [rising, full curve, poor fit]",
Cc1cccc(NC(=S)N2CCN(Cc3ccc4c(c3)OCO4)CC2)c1C,"28.2 µM [rising, partial curve]",
CC(C)OC(=O)C(C(=O)OC(C)C)=C1SC=CS1,"0.00631 µM [falling, full curve, poor fit]","22.4 µM [rising, single point]"
CN(C)CCN(Cc1ccco1)C(=O)c1oc2ccccc2c1NC(=O)c1cccc(F)c1,"4.47 µM [falling, single point]",
COc1ccc2c(c1)C(NC(=O)C(F)(F)F)CC2=O (configuration not stated),"12.6 µM [falling, partial curve, poor fit]","12.6 µM [falling, partial curve, poor fit]"

# Laid out differently: results already given
Compound	AC50 [1]	AC50 [2]
O=c1c2ccccc2cnn1-c1ccc(Cl)cc1	11.2 µM [rising, partial curve]	1.58 µM [rising, partial curve]
Cc1ccc(C(=O)N/C(=C/c2cccs2)C(=O)NCCc2c[nH]c3ccccc23)cc1	3.98 µM [rising, partial curve]	
